Measured values reported in article PMC2477742.
For at least one entry, the source does not settle the construct or the ends of the probe. Results from cells or extracts need not show a direct contact.

Protein sequences, listed by entry. Tags and fused reporters are not part of them. Lines headed by an entry give the natural chain unless they say otherwise; changes in a name come on top.
UniProt P42227, whole entry: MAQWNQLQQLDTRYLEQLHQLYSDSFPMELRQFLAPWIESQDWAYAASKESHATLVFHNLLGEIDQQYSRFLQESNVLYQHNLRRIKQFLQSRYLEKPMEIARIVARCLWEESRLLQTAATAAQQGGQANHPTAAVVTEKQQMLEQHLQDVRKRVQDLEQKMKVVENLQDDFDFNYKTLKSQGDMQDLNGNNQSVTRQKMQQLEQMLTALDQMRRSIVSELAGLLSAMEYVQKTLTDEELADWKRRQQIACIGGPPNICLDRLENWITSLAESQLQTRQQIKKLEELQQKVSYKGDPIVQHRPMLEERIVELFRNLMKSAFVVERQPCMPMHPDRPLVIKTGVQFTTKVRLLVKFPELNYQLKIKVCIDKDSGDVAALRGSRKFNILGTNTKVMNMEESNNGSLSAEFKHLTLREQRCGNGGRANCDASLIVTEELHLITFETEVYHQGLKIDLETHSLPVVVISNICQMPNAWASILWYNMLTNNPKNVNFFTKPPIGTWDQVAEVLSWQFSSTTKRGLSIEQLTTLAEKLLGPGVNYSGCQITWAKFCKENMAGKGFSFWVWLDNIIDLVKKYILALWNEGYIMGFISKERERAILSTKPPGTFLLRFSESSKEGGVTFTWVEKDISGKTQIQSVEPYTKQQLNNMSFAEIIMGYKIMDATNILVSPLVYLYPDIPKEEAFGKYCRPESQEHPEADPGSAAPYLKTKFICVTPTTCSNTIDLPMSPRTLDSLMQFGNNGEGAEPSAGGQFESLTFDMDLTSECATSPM
UniProt P42225: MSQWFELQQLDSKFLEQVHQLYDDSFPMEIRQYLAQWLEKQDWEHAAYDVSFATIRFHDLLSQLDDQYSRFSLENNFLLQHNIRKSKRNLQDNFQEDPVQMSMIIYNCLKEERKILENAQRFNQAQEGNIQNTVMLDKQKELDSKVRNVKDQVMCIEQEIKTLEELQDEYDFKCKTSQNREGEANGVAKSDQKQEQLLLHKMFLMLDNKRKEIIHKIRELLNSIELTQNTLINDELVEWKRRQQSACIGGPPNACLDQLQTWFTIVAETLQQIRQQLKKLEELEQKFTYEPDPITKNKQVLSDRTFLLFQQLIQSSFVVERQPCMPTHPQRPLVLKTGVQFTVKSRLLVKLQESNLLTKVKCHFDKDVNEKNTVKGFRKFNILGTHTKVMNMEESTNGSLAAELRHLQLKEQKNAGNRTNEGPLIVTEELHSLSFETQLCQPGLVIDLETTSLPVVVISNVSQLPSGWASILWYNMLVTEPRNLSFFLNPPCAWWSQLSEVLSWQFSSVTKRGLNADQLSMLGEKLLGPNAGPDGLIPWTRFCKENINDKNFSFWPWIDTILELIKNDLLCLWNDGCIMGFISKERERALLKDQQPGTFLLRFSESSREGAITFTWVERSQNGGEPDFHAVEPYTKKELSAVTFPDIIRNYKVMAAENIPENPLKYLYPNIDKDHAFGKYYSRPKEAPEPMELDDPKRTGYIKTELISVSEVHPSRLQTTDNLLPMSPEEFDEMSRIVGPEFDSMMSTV

Key:
[1] = biological target: STAT3 (IL-6-activated, phosphorylated) (mouse (NIH 3T3 cells)) (UniProt P42227); experiment: EMSA supershift; conditions: NIH 3T3 nuclear extract, IL-6 30 min; 13.3 mM Hepes pH 7.6, 0.7 mM EDTA, 3.3 mM MgCl2, 34 mM KCl, 1 mM DTT, 10% glycerol, 0.5 ug poly(dI-dC), on ice 15 min; 5% PAGE in 0.25x TBE; protein in an extract; label: 32P (alpha-32P dATP end-labelling)
[2] = biological target: STAT1 (IFN-gamma-activated, phosphorylated) (UniProt P42225); experiment: EMSA supershift; conditions: IFN-gamma 30 min, 13.3 mM Hepes pH 7.6, 0.7 mM EDTA, 3.3 mM MgCl2, 34 mM KCl, 1 mM DTT, 10% glycerol, 0.5 ug poly(dI-dC), on ice 15 min, 5% PAGE in 0.25x TBE, protein in an extract, label: 32P (alpha-32P dATP end-labelling)

Measured: binding result

GATCTAGGGATTTCCGGGAAATGAAGCT (double strand) [M67 (c-sis-inducible element probe)]
binds: [1] | [2]; NIH 3T3 nuclear extract | [2]; NIT nuclear extract
